These are yes or no findings as the source states them, for the method shown. In cells and extracts the contact can be indirect. Some results given as binding are weak or reduced against the parent protein; the word gives no strength. For part of these data: Where a sequence is shown, tags or fusion partners need not be part of it.
Assays:
[1] = target: Bcl-2-associated athanogene 3 (BAG3) (human (cDNA from HEK293 cells; U251 is a human cell line)) (UniProt O95817); experiment: co-IP; U251 cell lysates, RIPA buffer; which protein was precipitated is not told in the text (Fig. 3c)
[2] = target: Bcl-2-associated athanogene 3 (BAG3) (human (cDNA from HEK293 cells; U251 is a human cell line)) (UniProt O95817); experiment: co-IP; BAG3 immunoprecipitates from U251 cell lines stably overexpressing CRYAB-Flag or empty vector, RIPA buffer; blots for HSC70, HSPB8 and CRYAB (Fig. 3d)
[3] = target: Bcl-2-associated athanogene 3 (BAG3) (human (cDNA from HEK293 cells; U251 is a human cell line)) (UniProt O95817); experiment: co-IP; lysates of U251 cells stably overexpressing CRYAB-Flag; RIPA buffer (50 mM Tris pH 7.4, 150 mM NaCl, 1% NP-40, 0.5% sodium deoxycholate, 0.1% SDS); precipitating antibody not told in the text (Fig. 3a)

Sequences of proteins named here, by UniProt entry; tags and fusion partners are left off.
UniProt O95817: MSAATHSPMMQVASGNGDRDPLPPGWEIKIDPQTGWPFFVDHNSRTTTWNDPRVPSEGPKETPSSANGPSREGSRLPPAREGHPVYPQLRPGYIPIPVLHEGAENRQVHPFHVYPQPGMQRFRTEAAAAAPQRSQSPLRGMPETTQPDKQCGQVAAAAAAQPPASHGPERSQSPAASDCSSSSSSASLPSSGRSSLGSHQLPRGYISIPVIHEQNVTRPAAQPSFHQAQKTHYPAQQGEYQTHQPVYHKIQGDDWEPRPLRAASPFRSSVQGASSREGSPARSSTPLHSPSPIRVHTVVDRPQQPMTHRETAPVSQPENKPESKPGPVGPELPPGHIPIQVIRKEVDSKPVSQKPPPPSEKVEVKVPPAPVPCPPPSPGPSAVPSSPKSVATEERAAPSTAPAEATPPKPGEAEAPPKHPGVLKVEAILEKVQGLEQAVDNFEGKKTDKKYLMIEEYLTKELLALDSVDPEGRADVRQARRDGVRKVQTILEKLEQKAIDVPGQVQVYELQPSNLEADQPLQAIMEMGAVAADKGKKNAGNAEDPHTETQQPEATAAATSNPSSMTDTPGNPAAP
UniProt P11142: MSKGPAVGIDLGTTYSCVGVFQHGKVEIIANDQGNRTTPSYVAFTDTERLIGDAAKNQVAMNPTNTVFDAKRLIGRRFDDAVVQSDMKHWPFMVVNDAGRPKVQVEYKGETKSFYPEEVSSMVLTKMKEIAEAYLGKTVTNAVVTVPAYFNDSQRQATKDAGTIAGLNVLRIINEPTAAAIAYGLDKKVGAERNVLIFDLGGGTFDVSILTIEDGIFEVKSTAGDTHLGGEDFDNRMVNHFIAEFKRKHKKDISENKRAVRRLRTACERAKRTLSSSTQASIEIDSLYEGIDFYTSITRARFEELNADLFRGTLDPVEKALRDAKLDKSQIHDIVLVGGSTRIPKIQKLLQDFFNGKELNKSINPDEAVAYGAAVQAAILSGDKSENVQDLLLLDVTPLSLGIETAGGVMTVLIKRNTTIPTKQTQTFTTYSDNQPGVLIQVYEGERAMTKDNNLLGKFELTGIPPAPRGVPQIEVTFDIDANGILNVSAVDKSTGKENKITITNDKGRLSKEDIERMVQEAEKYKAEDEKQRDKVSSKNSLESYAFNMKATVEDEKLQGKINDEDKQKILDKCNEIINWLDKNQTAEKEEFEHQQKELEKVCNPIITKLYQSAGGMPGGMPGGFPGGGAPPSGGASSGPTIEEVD

Molecule | binding [1] | binding [2] | binding [3]
HSC70 (from UniProt P11142 1-646) | binds | binds | –
αB-crystallin (CRYAB)-Flag (protein, UniProt P02511 1-175) MDIAIHHPWIRRPFFPFHSPSRLFDQFFGEHLLESDLFPTSTSLSPFYLRPPSFLRAPSWFDTGLSEMRLEKDRFSVNLDVKHFSPEELKVKVLGDVIEVHGKHEERQDEHGFISREFHRKYRIPADVDPLTITSSLSSDGVLTVNGPRKQVSGPERTIPITREEKPAVTAAPKK | – | binds | binds
HSPB8 (protein, UniProt Q9UJY1 1-196) MADGQMPFSCHYPSRLRRDPFRDSPLSSRLLDDGFGMDPFPDDLTASWPDWALPRLSSAWPGTLRSGMVPRGPTATARFGVPAEGRTPPPFPGEPWKVCVNVHSFKPEELMVKTKDGYVEVSGKHEEKQQEGGIVSKNFTKKIQLPAEVDPVTVFASLSPEGLLIIEAPQVPPYSTFGESSFNNELPQDSQEVTCT | binds | binds | –
